These are yes or no findings as the source states them, for the method shown. Where a sequence is shown, tags or fusion partners need not be part of it.
Columns and labels:
[1] = target: Human KCTD15 BTB domain variant Asp104His (residues 52-165) (human) (UniProt Q96SI1); assay: AUC; sedimentation velocity, 20°C, 40 000 rpm; proteins at 1 mg/mL in 50 mM HEPES pH 7.5, 300 mM NaCl, 0.5 mM TCEP; both purified
[2] = target: Human KCTD15 BTB domain variant Asp104His (residues 52-165) (human) (UniProt Q96SI1); assay: SEC-MALS; Superose 6 10/300 GL equilibrated with PBS, 0.5 mL/min; proteins prepared at 1 mg/mL in gel filtration buffer; both purified
[3] = target: Human KCTD15 BTB domain variant Asp104His (residues 52-165) (human) (UniProt Q96SI1); assay: native MS; samples at 1 mg/mL exchanged into 50 mM ammonium acetate pH 6.5; ESI Q-TOF, direct infusion; both purified

binding [1]: no binding (tested: 1 mg/mL) | binding [2]: no binding (tested: 1 mg/mL) | binding [3]: no binding (tested: 1 mg/mL)
B1: Human KCTD15 BTB domain variant Asp104His (residues 52-165) (domain or fragment, UniProt Q96SI1-1 52-165)
chain: TKSNAPVHIDVGGHMYTSSLATLTKYPDSRISRLFNGTEPIVLDSLKQHYFIHRDGEIFRYVLSFLRTSKLLLPDDFKDFSLLYEEARYYQLQPMVRELERWQQEQEQRRRSRA
